Some of these results come from one statement about several compounds together. For at least one compound, name, drawing or mass did not settle the structure.
Legend:
Klebsiella terrigena = test: Disinfection of seeded test waters, log reduction of Klebsiella; conditions: seeded untreated natural waters, 120 minutes contact time
MS2 bacteriophage = test: Disinfection of seeded test waters, log reduction of MS2 virus; conditions: seeded untreated natural waters, 4 hours contact time

Compound | log reduction of Klebsiella (Klebsiella terrigena) | log inactivation of MS2 virus (MS2 bacteriophage)
[Cu+2] [copper ions] | less than 3 log | less than 1 log
silver ions | less than 3 log | –

— patent publication US7485259B2, “Organic compound and metal ion synergistic disinfection and purification system and method of manufacture” (priority 2003, dated 2009)
